Measured values reported in PubChem BioAssay AID662 (National Center for Advancing Translational Sciences (NCATS), 2007).
Where “and” joins values, the source holds several entries; their conditions need not be identical. Equal values may be shown once. This is one part of the list. Shown are side measurements of this screen, not its main read-out; they come without a call. The list favours compounds with an active or inconclusive main result. Words in brackets tell the shape of the fitted curve; partial curves, single points and poor fits give uncertain potencies.

Assay: Cell signaling CRE-BLA (Fsk stim)
Conditions: CHO CRE-bla reporter (cAMP response element driving beta-lactamase), forskolin EC10, beta-lactamase ratio; measured here: 460 nm blue channel
Outline: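 Cells were plated overnight at 37 °C, exposed to compound titrations plus EC10 NKH 477 for 3 h, then given CCF4 dye for 2 h at room temperature. Blue/green (460/530 nm) ratio was converted to %Activity and AC50 values calculated.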

Row | Compound | AC50
1 | CC[C@]1(O)C[C@H]2CN(CCc3c([nH]c4ccccc34)[C@](C(=O)OC)(c3cc4c(cc3OC)N(C=O)[C@H]3[C@@](O)(C(=O)OC)[C@H](OC(C)=O)[C@@]5(CC)C=CCN6CC[C@]43[C@H]65)C2)C1 | 1.26 µM [rising, full curve]
2 | CCOc1nc(-c2ccc(C)cc2)ccc1-c1noc(COC)n1 | 5.01 µM [rising, single point]
3 | COc1cc2c(cc1NCc1ccccn1)oc1ccccc12 | 25.1 µM [rising, single point]
4 | Cc1ccc(S(=O)(=O)N2CCN(S(C)(=O)=O)C2)cc1 | 0.398 µM [falling, partial curve]
5 | CCOC(=O)/C=C1\SCC(=O)N1Cc1ccc(Br)cc1 | 20 µM [falling, partial curve]
6 | CCc1ccc(CCC(=O)Nc2nccs2)o1 | 0.398 µM [falling, partial curve, poor fit]
7 | CC(OC1=CC(=O)CCC1)C(=O)c1ccccc1 (stereo not drawn) | 0.00316 µM [falling, full curve]
8 | CCCCCn1c(CN2CCN(Cc3ccccc3)CC2)nc2c1c(=O)n(C)c(=O)n2C | 25.1 µM [rising, single point]
9 | Cc1ccc(-n2c3c(cc(C(=O)NC4CCSC4=O)c2=O)C(=O)CC(C)(C)C3)cc1 (stereo not drawn) | 0.00398 µM [falling, full curve, poor fit]
10 | COc1cc(Nc2cc(C)nc3nc(C)nn23)cc(OC)c1OC | 2.51 µM [rising, full curve]
11 | O=C(NCc1cccs1)c1ccc2c(c1)ncn2C1CCCC1 | 12.6 µM [rising, single point]
12 | c1ccc(-n2cnnc2SCc2nc3ccccc3s2)cc1 | 10 µM [rising, single point]
13 | O=C(CCc1nc2ccccc2[nH]1)N1CCc2ccccc2C1 | 12.6 µM [rising, partial curve]
14 | CCCCCCCCCCCC1=C(O)C(=O)C=C(O)C1=O | 31.6 µM [falling, single point] and 20 µM [falling, partial curve]
15 | O=C(c1cccc(S(=O)(=O)N2CCOCC2)c1)N1CCCCCC1 | 5.01 µM [falling, single point]
16 | COc1ccc(C(=O)C2CCN(S(=O)(=O)c3ccc4c(c3)OCCO4)CC2)cc1 | 25.1 µM [falling, single point]
17 | COc1ccc2cc(CCNC(=O)c3c(-c4ccccc4Cl)noc3C)c(=O)[nH]c2c1 | 10 µM [rising, partial curve]
18 | COc1ccc2nc3oc(C(=O)N4CCCCC4)cc3cc2c1 | 12.6 µM [rising, partial curve, poor fit]
19 | O=C(Cc1ccc(F)cc1)OCC(=O)c1cc2ccccc2o1 | 0.126 µM [falling, full curve, poor fit]
20 | CCOC(=O)CSc1nc2c(cnn2-c2ccc(C)cc2)c(=O)[nH]1 | 0.00316 µM [falling, full curve, poor fit]
21 | CCc1nc2oc3ccccc3c(=O)c2c(=O)n1Cc1ccc(OC)cc1 | 6.31 µM [rising, partial curve]
22 | O=C(CCCCn1c(=O)[nH]c2ccccc2c1=O)N1CCN(c2ncccn2)CC1 | 12.6 µM [rising, partial curve]

Row | Compound | AC50
23 | O=C(c1ccc(Br)o1)N1CCN(c2ccc(F)cc2)CC1 | 3.16 µM [rising, full curve, poor fit]
24 | CCn1c(=O)c2c(cnn2C)c2ccccc21 | 25.1 µM [rising, single point]
25 | COc1cccc(-c2cc(C(F)(F)F)n3nc(N)nc3n2)c1 | 1.58 µM [falling, partial curve]
26 | COc1c2ccoc2cc2oc(=O)ccc12 | 25.1 µM [rising, partial curve, poor fit] and 15.8 µM [rising, partial curve]
27 | COc1ccc(-c2cc(C(=O)NCc3cccs3)no2)cc1OC | 12.6 µM [rising, partial curve]
28 | COCCSc1nnc(NC(=O)C2CCCO2)s1 (stereo not drawn) | 12.6 µM [rising, single point]
29 | Clc1ccc(CC[C@H](Cn2ccnc2)Sc2c(Cl)cccc2Cl)cc1 | 12.6 µM [falling, single point]
30 | O=S(=O)(c1ccc(F)cc1)N1CN(Cc2ccco2)c2nc3ccccc3nc21 | 25.1 µM [rising, single point]
31 | CCSc1nc2nc(C)cc(C)n2n1 | 0.126 µM [falling, full curve, poor fit]
32 | CCCn1nnc(NC(=O)c2cccc(OCC(C)C)c2)n1 | 2 µM [falling, partial curve, poor fit]
33 | CC1CCN(c2nc(-c3ccncc3)nc3ccccc23)CC1 | 3.16 µM [rising, full curve]
34 | CCCCn1c(=S)[nH]c2c(oc3ccc(Cl)cc32)c1=O | 0.00398 µM [falling, full curve, poor fit]
35 | O=S(=O)(NCc1ccc2c(c1)OCO2)c1ccc2c(c1)oc1ccccc12 | 3.98 µM [rising, partial curve]
36 | Cc1cccc(CNc2ncnc3ccc(-c4cccc(C#N)c4)cc23)c1 | 2.51 µM [rising, full curve]
37 | COc1ccc(-n2c(=O)c(-c3cccs3)nc3cnc(OC)nc32)cc1 | 7.94 µM [rising, partial curve]
38 | Cc1sc2nc(C3CC3)nc(SCC(=O)NCc3ccco3)c2c1C | 7.94 µM [rising, partial curve]
39 | COCCCNc1ccnc2c(Cl)cccc12 | 10 µM [falling, partial curve]
40 | CSc1nc(NC(C)C)nc(N2CCOCC2)n1 | 5.01 µM [rising, partial curve]
41 | Cc1ccc2cc(CCNC(=O)c3ccc(Br)o3)c(=O)[nH]c2c1 | 3.16 µM [rising, full curve, poor fit]
42 | CC(=O)NCCNc1nc(-c2ccccc2Cl)nc2ccccc12 | 7.94 µM [rising, partial curve]
43 | COc1ccc(CCN2CCCn3c2nc2c3c(=O)n(Cc3ccccc3F)c(=O)n2C)cc1OC | 10 µM [rising, partial curve]

13 entries from above, in markdown:

| Row | Compound | AC50 |
| --- | --- | --- |
| 23 | O=C(c1ccc(Br)o1)N1CCN(c2ccc(F)cc2)CC1 | 3.16 µM [rising, full curve, poor fit] |
| 24 | CCn1c(=O)c2c(cnn2C)c2ccccc21 | 25.1 µM [rising, single point] |
| 25 | COc1cccc(-c2cc(C(F)(F)F)n3nc(N)nc3n2)c1 | 1.58 µM [falling, partial curve] |
| 27 | COc1ccc(-c2cc(C(=O)NCc3cccs3)no2)cc1OC | 12.6 µM [rising, partial curve] |
| 28 | COCCSc1nnc(NC(=O)C2CCCO2)s1 (stereo not drawn) | 12.6 µM [rising, single point] |
| 29 | Clc1ccc(CC[C@H](Cn2ccnc2)Sc2c(Cl)cccc2Cl)cc1 | 12.6 µM [falling, single point] |
| 31 | CCSc1nc2nc(C)cc(C)n2n1 | 0.126 µM [falling, full curve, poor fit] |
| 32 | CCCn1nnc(NC(=O)c2cccc(OCC(C)C)c2)n1 | 2 µM [falling, partial curve, poor fit] |
| 33 | CC1CCN(c2nc(-c3ccncc3)nc3ccccc23)CC1 | 3.16 µM [rising, full curve] |
| 37 | COc1ccc(-n2c(=O)c(-c3cccs3)nc3cnc(OC)nc32)cc1 | 7.94 µM [rising, partial curve] |
| 38 | Cc1sc2nc(C3CC3)nc(SCC(=O)NCc3ccco3)c2c1C | 7.94 µM [rising, partial curve] |
| 41 | Cc1ccc2cc(CCNC(=O)c3ccc(Br)o3)c(=O)[nH]c2c1 | 3.16 µM [rising, full curve, poor fit] |
| 42 | CC(=O)NCCNc1nc(-c2ccccc2Cl)nc2ccccc12 | 7.94 µM [rising, partial curve] |
